# These are yes or no findings as the source states them, for the method shown. Some entries that bind do so weakly or less than the wild type.
# T1: BoYb NTD_MUT and CS_MUT1 (full-length) (Drosophila) (UniProt Q9VNP5)
# T1 sequence: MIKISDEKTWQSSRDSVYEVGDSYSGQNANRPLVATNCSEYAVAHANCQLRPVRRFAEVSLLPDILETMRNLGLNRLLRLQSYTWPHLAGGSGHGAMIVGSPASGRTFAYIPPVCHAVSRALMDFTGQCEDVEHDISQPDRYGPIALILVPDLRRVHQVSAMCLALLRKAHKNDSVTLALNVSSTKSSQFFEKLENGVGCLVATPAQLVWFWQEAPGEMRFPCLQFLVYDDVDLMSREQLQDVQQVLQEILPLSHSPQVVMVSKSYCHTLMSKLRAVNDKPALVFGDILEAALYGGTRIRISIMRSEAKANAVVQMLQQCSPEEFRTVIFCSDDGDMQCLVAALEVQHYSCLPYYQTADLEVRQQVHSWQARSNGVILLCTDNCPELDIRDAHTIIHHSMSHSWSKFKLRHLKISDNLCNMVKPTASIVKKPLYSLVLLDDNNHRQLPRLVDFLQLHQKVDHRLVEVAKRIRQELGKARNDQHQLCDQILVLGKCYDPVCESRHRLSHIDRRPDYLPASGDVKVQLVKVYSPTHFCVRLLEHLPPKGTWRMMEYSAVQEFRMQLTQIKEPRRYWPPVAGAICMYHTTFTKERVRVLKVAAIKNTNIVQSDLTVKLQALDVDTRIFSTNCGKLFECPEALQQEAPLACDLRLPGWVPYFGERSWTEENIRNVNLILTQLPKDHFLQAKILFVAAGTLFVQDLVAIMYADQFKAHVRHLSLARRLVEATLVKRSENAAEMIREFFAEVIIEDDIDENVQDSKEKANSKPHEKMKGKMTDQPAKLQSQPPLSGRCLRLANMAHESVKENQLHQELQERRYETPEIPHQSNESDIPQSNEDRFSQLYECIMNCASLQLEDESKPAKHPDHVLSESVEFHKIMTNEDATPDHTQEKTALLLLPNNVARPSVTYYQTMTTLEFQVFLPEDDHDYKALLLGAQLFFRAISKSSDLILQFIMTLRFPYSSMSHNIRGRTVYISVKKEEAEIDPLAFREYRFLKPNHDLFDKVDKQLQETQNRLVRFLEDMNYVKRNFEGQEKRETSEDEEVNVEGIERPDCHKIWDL
# T2: SoYb (Drosophila) (UniProt Q9VL52)
# T2 sequence: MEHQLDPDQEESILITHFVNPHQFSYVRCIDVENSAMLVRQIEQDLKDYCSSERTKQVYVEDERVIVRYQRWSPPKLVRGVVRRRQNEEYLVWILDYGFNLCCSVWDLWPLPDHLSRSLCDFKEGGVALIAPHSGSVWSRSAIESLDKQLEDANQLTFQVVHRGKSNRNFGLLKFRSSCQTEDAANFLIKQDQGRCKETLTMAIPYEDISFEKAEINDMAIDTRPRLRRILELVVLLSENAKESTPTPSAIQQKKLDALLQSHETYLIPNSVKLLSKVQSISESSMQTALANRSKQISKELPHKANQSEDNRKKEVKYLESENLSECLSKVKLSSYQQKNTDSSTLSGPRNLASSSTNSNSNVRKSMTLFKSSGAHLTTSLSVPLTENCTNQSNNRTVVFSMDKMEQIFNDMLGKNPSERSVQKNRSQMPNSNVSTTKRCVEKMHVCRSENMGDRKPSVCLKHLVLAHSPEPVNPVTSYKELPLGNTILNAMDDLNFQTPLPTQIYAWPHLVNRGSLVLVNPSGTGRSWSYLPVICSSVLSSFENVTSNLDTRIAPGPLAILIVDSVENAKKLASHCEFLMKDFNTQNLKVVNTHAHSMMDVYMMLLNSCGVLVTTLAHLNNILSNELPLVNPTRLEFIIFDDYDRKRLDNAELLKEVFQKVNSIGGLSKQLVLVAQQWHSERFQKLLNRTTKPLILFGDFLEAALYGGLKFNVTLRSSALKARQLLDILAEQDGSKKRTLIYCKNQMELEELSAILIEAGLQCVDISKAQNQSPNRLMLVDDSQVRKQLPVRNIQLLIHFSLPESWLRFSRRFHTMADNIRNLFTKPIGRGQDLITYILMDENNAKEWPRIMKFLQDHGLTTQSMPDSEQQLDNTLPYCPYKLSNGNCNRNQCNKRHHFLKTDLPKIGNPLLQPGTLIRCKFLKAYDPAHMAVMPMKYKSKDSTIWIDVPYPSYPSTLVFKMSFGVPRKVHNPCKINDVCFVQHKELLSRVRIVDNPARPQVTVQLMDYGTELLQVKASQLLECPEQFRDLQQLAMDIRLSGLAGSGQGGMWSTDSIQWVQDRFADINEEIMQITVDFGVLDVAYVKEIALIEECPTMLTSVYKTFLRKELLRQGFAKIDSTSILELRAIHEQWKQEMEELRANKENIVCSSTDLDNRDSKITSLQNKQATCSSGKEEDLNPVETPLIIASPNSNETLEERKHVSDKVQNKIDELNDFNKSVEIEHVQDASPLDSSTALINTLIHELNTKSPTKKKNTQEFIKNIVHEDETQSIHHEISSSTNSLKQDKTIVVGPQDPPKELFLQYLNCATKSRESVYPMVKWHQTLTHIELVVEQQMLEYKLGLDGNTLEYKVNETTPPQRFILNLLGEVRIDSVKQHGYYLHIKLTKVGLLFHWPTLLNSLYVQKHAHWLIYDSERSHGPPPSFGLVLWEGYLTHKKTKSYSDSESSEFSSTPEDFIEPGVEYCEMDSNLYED
# Columns and labels:
# [1] = target: T1, BoYb NTD_MUT and CS_MUT1 (full-length) (Drosophila); assay: ReLo
# [2] = target: T2, SoYb (Drosophila); assay: ReLo
binder,measurement,setting,value
"Vreteno (protein, UniProt Q9VCU7 1-691) MESESSQDDWSAFDPMSREYYDQVGNRYTNESGQKLIMEAPLPPKDEKEQRATRQAKYPYLVVPKSSPYVTEKMLINFFGRALIKEMEFRRLSRVYFVYFENIASLETAQQRVQRYPNLIKCITGRPQKEREITSDPVTSTEPMPTPGPAISATERTPVNHNREVPISTGGQNHPEFFRPPLVTKDDYKRGSLLATNDPIQRYLNVKYEFALERHDIYKLKDETRIPQVVLHFRSGRTIPLSTVAVTEEDKTKSLLEDGVSKCVVCQNWTDTFCKLCKMPFCNASCFADVAEQHKQACGKGEILNLDEKVGRKYPKPGLPPSGSKVRITAFEQTNVVYVRSADIQIDIAYYTVLTEVMMLGKDASKLQSTPVCGQIVLYKFEGHMSRAMVLNVDNIKEIYVVFIDFGSVEVTQLERLYECSSYLAGLTCYPVAVKLRGVPRRFVGPNIREVMYELDQSLVFNIKYSSREYDTSKGMQVVVMTEIDINRSLNRLFKTILTPVEPSVSDLGYKEDCLPYIPLHCGKNINVVVMDNTFIQCGFIYCTSIDLAYEVTKMQRDIQEYGEKIAKCATYAPPINELCIAKYEGKWRRGLSVELVGDGYPSILFIDYGNIVPTHVTDIRPYPPQFIFPIMTTQLDLIGVPEKPTDEQIKWLDKNYPIGSVITCSEITFDEETNSYSTRIEKLQEFLSLD",binding,[1],no binding
same,binding,[2],binds

# Source: doi:10.1101/2024.05.31.596839
